Laboratory results published in patent EP0917878A1, “REMEDIES FOR HEPATITIS” (TORAY INDUSTRIES, INC., priority 1997, dated 1998).
Part of at least one peptide drawing is inferred or uncertain, most often the ends. Residues, ends and D or L forms follow the SMILES beside them.

The chains behind the UniProt entries cited, without tags or fusion partners. Residues count along the entry.
UniProt P13612, 35-977 limits assumed, stated change not applied: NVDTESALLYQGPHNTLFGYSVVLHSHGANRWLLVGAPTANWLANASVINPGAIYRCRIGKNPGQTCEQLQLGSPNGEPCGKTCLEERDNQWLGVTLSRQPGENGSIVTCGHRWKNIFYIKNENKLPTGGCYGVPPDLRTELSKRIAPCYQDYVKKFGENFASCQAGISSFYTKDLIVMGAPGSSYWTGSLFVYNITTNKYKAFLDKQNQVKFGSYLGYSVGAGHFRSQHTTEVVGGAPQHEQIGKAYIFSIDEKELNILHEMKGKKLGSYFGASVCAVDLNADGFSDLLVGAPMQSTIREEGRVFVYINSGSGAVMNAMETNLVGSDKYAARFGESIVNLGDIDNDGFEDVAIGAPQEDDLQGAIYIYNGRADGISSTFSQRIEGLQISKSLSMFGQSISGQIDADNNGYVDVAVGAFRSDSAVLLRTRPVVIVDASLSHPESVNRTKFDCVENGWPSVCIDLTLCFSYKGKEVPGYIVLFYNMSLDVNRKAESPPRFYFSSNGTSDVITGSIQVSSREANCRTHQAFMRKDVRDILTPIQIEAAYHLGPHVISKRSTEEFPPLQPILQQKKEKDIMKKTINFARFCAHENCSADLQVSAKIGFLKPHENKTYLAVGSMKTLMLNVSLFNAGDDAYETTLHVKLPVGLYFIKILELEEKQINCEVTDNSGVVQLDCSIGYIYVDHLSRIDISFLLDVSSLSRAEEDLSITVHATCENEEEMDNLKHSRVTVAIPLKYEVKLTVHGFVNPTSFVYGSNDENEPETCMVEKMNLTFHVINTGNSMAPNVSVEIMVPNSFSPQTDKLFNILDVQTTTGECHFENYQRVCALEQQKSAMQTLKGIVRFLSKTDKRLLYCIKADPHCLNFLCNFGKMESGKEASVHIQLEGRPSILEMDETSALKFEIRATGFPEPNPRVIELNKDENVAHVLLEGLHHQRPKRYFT

Target: α4·IgG heavy chain-β1·IgG heavy chain chimeric protein heterodimer complex (chimeric protein of VLA-4 and IgG heavy chain) (Homo sapiens, UniProt P05556+P13612)
Experiment: binding of α4·IgG heavy chain-β1·IgG heavy chain chimeric protein heterodimer complex to solid phase CS-1-IgG (absorbance at 490 nm)
Set-up: the extracellular region of integrin α4 and an immunoglobulin heavy chain; the extracellular region of integrin β1 and an immunoglobulin heavy chain; made in house; culture supernatant used
Conditions: peptide mixed with complex 20 minutes at room temperature; range of 0.1 to 10 µg/ml, Fig. 2

CC[C@H](C)[C@H](NC(=O)[C@H](CCC(=O)O)NC(=O)[C@@H]1CCCN1C(=O)CN)C(=O)N[C@@H](CC(C)C)C(=O)N[C@@H](CCC(=O)O)C(=O)N[C@H](C(=O)N1CCC[C@H]1C(=O)N[C@@H](CO)C(=O)N[C@H](C(=O)O)[C@@H](C)O)C(C)C [GPEILEVPST, Gly Pro Glu Ile Leu Glu Val Pro Ser Thr] (H-GPEILEVPST-OH)
inhibition of binding to CS-1-IgG: did not show any inhibition of binding
